# The campaign covered roughly 220,000 compounds. About 2,400 (1.1%) were called active. The inconclusive results got no clear call from the source; some entries with a clear call stand among them for comparison. The call rests on the fitted dose curve; in most records, active means well fitted inhibition curve with a large enough effect; inconclusive means small, poorly fitted or top-dose-only effect, or effect the other way; inactive means no such curve, though single readings can be large or run the other way. Potencies beside an inconclusive call are fits to weak or partial responses and may not hold up.
# Experiment: qHTS Multiplex Assay to Identify Dual Action Probes in a Cell Model of Huntington: Aggregate Formation (GFP); further: nearly all actives have a fitted effect of over 60% in size
# Conditions: PC12 HttQ103-GFP aggregates, Acumen cytometry, 40 h; activity change, negative = inhibition: at 46.1 µM (top of the series) unless noted
# How it was run: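 PC12 cells with ecdysone-inducible HTT exon1 Q103-GFP, induced by 100 nM tebufenozide, given compounds in a concentration series. GFP aggregates (1–25 um, 6 SD above background) counted in lysates by laser-scanning cytometry, 488 nm excitation.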
# On the % scale 0 is the no-effect control and ±100 the full control effect; potency means the concentration at half of the fitted maximal effect.
Compound,Potency,"activity change, negative = inhibition"
Cc1ccc2nc(NC(=O)CSc3nc4c(c(=O)n3C)SC(C)C4)sc2c1 (stereo unspecified),"inconclusive: 35.5 µM [inhibitor, single point]",
CC1CCC(C(=O)NC(C(=O)N2CCN(c3ccccn3)CC2)C(C)C)CC1 (stereo unspecified),inactive,
Cc1cc(C)c(S(=O)(=O)Nc2ccc3c4c(cccc24)CC3)c(C)c1,"inconclusive: 28.2 µM [inhibitor, single point]",
CC(C)CCNC(=O)NC(=O)COc1ncnc2sccc12,"inconclusive: 22.4 µM [inhibitor, partial curve]",
NC(=O)SCC(=O)Nc1ccccc1C(=O)O,,inactive: 5.97% [at 9.22 µM]
CN1CCN(c2ccc(Cl)cc2NC(=O)C2COc3ccccc3O2)CC1 (stereo unspecified),"inconclusive: 22.4 µM [inhibitor, single point]",
COc1ccc(N2C(=O)CC(Sc3nc4ccccc4s3)C2=O)cc1 (stereo unspecified),active: 31.6 µM,
O=C(NCCCc1ccccc1)Nc1cccc(Cl)c1,"inconclusive: 3.55 µM [inhibitor, single point]",
O=C1C=C(NCCN2CCOCC2)C(=O)c2cnccc21,"inconclusive: 25.1 µM [inhibitor, single point]",
CCOC(=O)C1CCCN(C(=O)Cn2cnc3c2c(=O)n(C)c(=O)n3C)C1 (stereo unspecified),"inconclusive: 0.0891 µM [inhibitor, full curve, poor fit]",
C/C(=N\NC(=O)c1cc(-c2cccc([N+](=O)[O-])c2)n[nH]1)c1ccccc1O,"inconclusive: 6.31 µM [inhibitor, full curve, poor fit]",
CC1(C)CC(NC(=O)c2ccccn2)CC(C)(C)N1O,inactive,
COC(=O)c1cc(=O)n(-c2ccccc2)c(=Nc2ccccc2)s1,inactive,
CN(C(=O)c1ccc(COc2ccccc2Br)o1)c1ccccc1,"inconclusive: 3.16 µM [inhibitor, single point]",
CN(Cc1ccccc1)C(=O)CC(c1ccccc1)c1cc(Cl)ccc1O (stereo unspecified),"inconclusive: 35.5 µM [inhibitor, single point]",
CCc1c(O)c(-c2ccccc2)c(=O)n(-c2ccccn2)c1-c1ccccc1,,inactive: 7.55% [at 9.22 µM]
Cc1ccc(-c2noc(CCC(=O)N(C)c3ccccc3C)n2)cc1,"inconclusive: 35.5 µM [inhibitor, single point]",
CN(C)c1cc[n+](CC(=O)c2ccc(Br)cc2)cc1,"inconclusive: 35.5 µM [inhibitor, single point]",
COCCNCc1ccc(Cl)cc1Cl,"inconclusive: 0.562 µM [activator, full curve, poor fit]",
O=C(CCc1ccc(S(=O)(=O)NCc2ccccc2)cc1)NCc1ccco1,inactive,
O=C(COC(=O)c1cc(-c2cccs2)nc2ccccc12)NC1CCS(=O)(=O)C1 (stereo unspecified),"inconclusive: 0.501 µM [activator, partial curve, poor fit]",
CCOc1ccc(C(=O)Nc2nnc(NC(=S)Nc3ccccc3)s2)cc1,inactive,
CC(C)=CC(=O)Nc1ccc(Cl)cc1,"inconclusive: 22.4 µM [inhibitor, single point]",

Compound,Potency,"activity change, negative = inhibition"
Cc1ccc(C(=O)CSc2n[nH]c(-c3ccco3)n2)cc1C,inactive,
COc1ccc(-n2nnnc2SCC(=O)c2ccc3c(c2)OCCO3)c(OC)c1,inactive,
O=C(C1=C(O)C(=O)N(Cc2ccco2)C1c1cccs1)c1cccs1 (stereo unspecified),inactive,
COC(=O)c1ccc(N2Cc3ccccc3/C2=N\C(=O)Nc2ccccc2)cc1,"inconclusive: 14.1 µM [activator, single point]",
FC(F)(F)c1ccccc1NC(=S)N1CCN(c2ncccn2)CC1,"inconclusive: 14.1 µM [inhibitor, single point]",
O=C(/C=C/c1ccccc1)N1CCN(c2ccc([N+](=O)[O-])c(N3CCOCC3)c2)CC1,inactive,
Cc1ccc(-n2c(C)cc(C(=O)COC(=O)c3c(C)noc3C)c2C)cc1,active: 10 µM,
O=C1C2CC=CCC2C(=O)N1c1cccc(OS(=O)(=O)c2ccc3ccccc3c2)c1 (stereo unspecified),inactive,
Cc1nn(-c2ccccc2)c2sc(C(=O)N3CCc4ccccc4C3)cc12,"inconclusive: 35.5 µM [inhibitor, single point]",
O=C(Nc1cccc2c1[nH]c1ccccc12)C(F)(F)F,"inconclusive: 20 µM [activator, partial curve]",
CCCOn1c(OCC(C)C)nc2ccccc2c1=O,inactive,
Cc1ccc(NC(=O)c2cccs2)cc1NC(=O)c1cccnc1,"inconclusive: 11.2 µM [inhibitor, partial curve]",
O=C(Nc1ccc(OCC(=O)N2CCOCC2)cc1)c1cncc(Br)c1,active: 11.2 µM,
O=C1CN(Cc2cc(=O)oc3cc4c(cc23)CCC4)CCN1,inactive,
CCOC(=O)/C(=C\c1ccc(Cl)cc1)c1nc2sc(C)c(C)c2c(=O)[nH]1,"inconclusive: 31.6 µM [activator, single point]",
COc1ccc(N2CCN(CC(=O)Nc3ccc(-n4cnnn4)cc3)CC2)cc1,inactive,
CC(C)(C)C(=O)Nc1ccc(Sc2ccc([N+](=O)[O-])cc2)cc1,"inconclusive: 35.5 µM [inhibitor, single point]",
CC1CCc2cc(F)ccc2N1C(=O)CCl (stereo unspecified),"inconclusive: 20 µM [inhibitor, single point]",
COc1ccc(O)c(/C=N/Nc2nc(Nc3ccccc3)nc(-n3nc(C)cc3C)n2)c1,"inconclusive: 35.5 µM [inhibitor, single point]",
COc1cccc(CNC23CC4CC(CC(C4)C2)C3)c1OCc1ccccc1,"inconclusive: 14.1 µM [inhibitor, single point]",
COc1ccc(C2C3=C(Nc4ncnn42)c2ccccc2CC3)cc1OC (stereo unspecified),"inconclusive: 35.5 µM [activator, single point]",
CC1CCC(NC(=O)Cn2c3c(c(-c4ccccc4Cl)cc2=O)CCC3)CC1 (stereo unspecified),"inconclusive: 35.5 µM [inhibitor, single point]",
Cn1c(=O)n(C)c2cc(NC(=O)c3cc4ccccc4o3)ccc21,"inconclusive: 35.5 µM [inhibitor, single point]",

# 2 entries from above, with bars between the fields:
Compound | Potency | activity change, negative = inhibition
CC(C)(C)C(=O)Nc1ccc(Sc2ccc([N+](=O)[O-])cc2)cc1 | inconclusive: 35.5 µM [inhibitor, single point] | 
CC1CCc2cc(F)ccc2N1C(=O)CCl (stereo unspecified) | inconclusive: 20 µM [inhibitor, single point] | 

# Source: PubChem BioAssay AID1688 (National Center for Advancing Translational Sciences (NCATS), 2009)
